PubChem BioAssay AID1224826 | NIAID – 2016

Screen: 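Regulators of Tlr4 signalling leading to Tnf-alpha expression in macrophages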 (primary screen)
Cell system: RAW264.7 G9 macrophages from mouse bearing reporters for p65 (GFP) and the Tnf promoter (mCherry)
Reagents: siRNA pool against mouse genes, 100 nM
Duration: 16 h of LPS stimulation, after 2 days of siRNA transfection
Challenge: bacterial lipopolysaccharide (Salmonella minnesota R595), 10 ng/ml
Detection: 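Nuclear mCherry signal of the Tnf promoter reporter measured by imaging after background removal, scaled to each plate median and turned into robust z-scores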
Direction: Tnf reporter robust z-score: higher = stronger Tnf promoter reporter signal after LPS; Tnf reporter intensity: higher = stronger Tnf promoter reporter signal
Active means: 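Called active when robust z-score is at most -1.3, matching the median of the Tlr4 knock-down control, or over 3; control wells and wells with under 50 cells never active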
Calls: active = Tnf reporter clearly lowered or raised; inactive = no clear change in Tnf reporter
The whole screen tested about 17,000 reagents; below is a part drawn at random. About 1,110 of them (6.6%) count as active. 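Active means lowered or raised reporter signal; replicate intensities are raw and not normalised per plate.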 Some reagents were tested in more than one well and are listed for each.

| gene | Tnf reporter robust z-score | fewer than 50 cells in well | Tnf reporter intensity, replicate 1 | Tnf reporter intensity, replicate 2 | activity call |
| --- | --- | --- | --- | --- | --- |
| Actr6 (GeneID 67019) | 1.38 | enough cells in well | 280 | 295 | inactive |
| Tgm2 (GeneID 21817) | 0.21 | enough cells in well | 224 | 160 | inactive |
| Ube2q2 (GeneID 109161) | – | fewer than 50 cells per well; well left out of calls | 182 | 45.5 | inactive |
| Slc25a3 (GeneID 18674) | 0.63 | enough cells in well | 121 | 124 | inactive |
| Nemf (GeneID 66244) | 0.86 | enough cells in well | 165 | 166 | inactive |
| Vsir (GeneID 74048) | – | fewer than 50 cells per well; well left out of calls | 100 | 51.5 | inactive |
| Tro (GeneID 56191) | -0.61 | enough cells in well | 87.9 | 76 | inactive |
| Abhd17c (GeneID 70178) | – | fewer than 50 cells per well; well left out of calls | 128 | 38.2 | inactive |
| Fam76b (GeneID 72826) | 3.1 | enough cells in well | 347 | 135 | active |
| Serpini1 (GeneID 20713) | 0.05 | enough cells in well | 290 | 214 | inactive |
| Lsm7 (GeneID 66094) | -1.64 | enough cells in well | 86.6 | 63.7 | active |
| Prps1l1 (GeneID 75456) | 0.51 | enough cells in well | 188 | 184 | inactive |
| Prps1l1 (GeneID 75456) | 1.08 | enough cells in well | 288 | 116 | inactive |
| Or5p68 (GeneID 258307) | – | fewer than 50 cells per well; well left out of calls | 40.5 | 36.5 | inactive |
| Nos2 (GeneID 18126) | 0.05 | enough cells in well | 282 | 156 | inactive |
| Reg1 (GeneID 19692) | -1.52 | enough cells in well | 105 | 57.2 | active |
| Serpinb12 (GeneID 71869) | 1.59 | enough cells in well | 148 | 163 | inactive |
| Igdcc3 (GeneID 19289) | 0.43 | enough cells in well | 310 | 264 | inactive |
| Etos1 (GeneID 114660) | -0.39 | enough cells in well | 193 | 133 | inactive |
| Snhg11 (GeneID 319317) | 0.54 | enough cells in well | 175 | 210 | inactive |
| Socs5 (GeneID 56468) | -0.35 | enough cells in well | 176 | 139 | inactive |
| Ca5b (GeneID 56078) | -0.38 | enough cells in well | 139 | 160 | inactive |
| Pgap4 (GeneID 67063) | 0.51 | enough cells in well | 165 | 208 | inactive |
| BC006965 (GeneID 217294) | -0.4 | enough cells in well | 185 | 171 | inactive |
| Twsg1 (GeneID 65960) | -1.66 | enough cells in well | 55.1 | 48.3 | active |
| Bax (GeneID 12028) | – | fewer than 50 cells per well; well left out of calls | 71.7 | 48.7 | inactive |
| Cnn2 (GeneID 12798) | 1.98 | enough cells in well | 261 | 313 | inactive |
| Obox6 (GeneID 252830) | 1.6 | enough cells in well | 349 | 183 | inactive |
| Nln (GeneID 75805) | -0.5 | enough cells in well | 178 | 169 | inactive |
| Hspbap1 (GeneID 66667) | -0.06 | enough cells in well | 214 | 111 | inactive |
| A030003K21Rik (GeneID 77913) | – | fewer than 50 cells per well; well left out of calls | 157 | 178 | inactive |
| Mt1 (GeneID 17748) | -1.73 | enough cells in well | 131 | 23.6 | active |
| Nalf1 (GeneID 270028) | 1.22 | enough cells in well | 209 | 263 | inactive |
| Arl2 (GeneID 56327) | -1.27 | enough cells in well | 113 | 77.7 | inactive |
| Zscan2 (GeneID 22691) | -0.58 | enough cells in well | 113 | 102 | inactive |
| Nepn (GeneID 66650) | 1.12 | enough cells in well | 256 | 191 | inactive |
| Vmn1r10 (GeneID 113858) | -1.37 | enough cells in well | 67 | 45.4 | active |
| Ccdc169 (GeneID 320604) | -0.5 | enough cells in well | 127 | 144 | inactive |
| Mphosph9 (GeneID 269702) | 0.4 | enough cells in well | 279 | 250 | inactive |
| Nop14 (GeneID 75416) | 0.24 | enough cells in well | 268 | 76.6 | inactive |

Records above with an active call (6):
| gene | Tnf reporter robust z-score | fewer than 50 cells in well | Tnf reporter intensity, replicate 1 | Tnf reporter intensity, replicate 2 | activity call |
| --- | --- | --- | --- | --- | --- |
| Fam76b (GeneID 72826) | 3.1 | enough cells in well | 347 | 135 | active |
| Lsm7 (GeneID 66094) | -1.64 | enough cells in well | 86.6 | 63.7 | active |
| Reg1 (GeneID 19692) | -1.52 | enough cells in well | 105 | 57.2 | active |
| Twsg1 (GeneID 65960) | -1.66 | enough cells in well | 55.1 | 48.3 | active |
| Mt1 (GeneID 17748) | -1.73 | enough cells in well | 131 | 23.6 | active |
| Vmn1r10 (GeneID 113858) | -1.37 | enough cells in well | 67 | 45.4 | active |
